In paper PMC5221799 (International Journal of Nanomedicine, 2016):
Where two headings read alike, the source gives them in different places.

Test system: MCF7 (Dox-sensitive) cells
Assay: CCK-8 cytotoxicity assay in MCF7 cells
Format: cell-based, human

COc1cccc2c1C(=O)c1c(O)c3c(c(O)c1C2=O)C[C@@](O)(C(=O)CO)C[C@@H]3O[C@H]1C[C@H](N)[C@H](O)[C@H](C)O1 [Free Dox, doxorubicin]
IC50 (read-out: IC50 of Dox or equivalent NLS-Dox, 48 hours, CCK-8, mean ± SD (n=5)): 2430 ± 220 nM
IC50 (read-out: IC50 of Dox or equivalent NLS-Dox, 96 hours, CCK-8, mean ± SD (n=5)): 610 ± 170 nM
